Consider 1 compound from patent US20110229482A1, “Method of inhibiting infection by HCV, other flaviviridae viruses, and any other virus that complexes to low density lipoprotein or to very low density lipoprotein in blood by preventing viral entry into a cell” (priority 2000, published 2011).

This test relates to HCV. Type of test: in vivo. Conditions: Tg mouse pretreated with 0.5 mg, then inoculated with HCV.

Turning to `CC(C)c1c(C(=O)Nc2ccccc2)c(-c2ccccc2)c(-c2ccc(F)cc2)n1CC[C@@H](O)C[C@@H](O)CC(=O)O` [atorvastatin], the “Endocytosis of HCV by hepatocytes (ISH for HCV RNA)” value is recorded as “increased endocytosis of HCV”.
